The supplement of paper PMC3334620
In all, about 33,000 sequences were measured (“E-score (-0.5 to 0.5)”: median about -0.015, highest 2% from about 0.3 on). The list shows a part of the results.

What follows are sequences tested against T1, Abf1 (UniProt P14164) (assay: PBM E-score (8-mer binding enrichment) (E-score (-0.5 to 0.5)); higher = stronger / more preferred TF binding). Conditions: protein concentration: 200 nM; construct: GST-full length.
T1 sequence: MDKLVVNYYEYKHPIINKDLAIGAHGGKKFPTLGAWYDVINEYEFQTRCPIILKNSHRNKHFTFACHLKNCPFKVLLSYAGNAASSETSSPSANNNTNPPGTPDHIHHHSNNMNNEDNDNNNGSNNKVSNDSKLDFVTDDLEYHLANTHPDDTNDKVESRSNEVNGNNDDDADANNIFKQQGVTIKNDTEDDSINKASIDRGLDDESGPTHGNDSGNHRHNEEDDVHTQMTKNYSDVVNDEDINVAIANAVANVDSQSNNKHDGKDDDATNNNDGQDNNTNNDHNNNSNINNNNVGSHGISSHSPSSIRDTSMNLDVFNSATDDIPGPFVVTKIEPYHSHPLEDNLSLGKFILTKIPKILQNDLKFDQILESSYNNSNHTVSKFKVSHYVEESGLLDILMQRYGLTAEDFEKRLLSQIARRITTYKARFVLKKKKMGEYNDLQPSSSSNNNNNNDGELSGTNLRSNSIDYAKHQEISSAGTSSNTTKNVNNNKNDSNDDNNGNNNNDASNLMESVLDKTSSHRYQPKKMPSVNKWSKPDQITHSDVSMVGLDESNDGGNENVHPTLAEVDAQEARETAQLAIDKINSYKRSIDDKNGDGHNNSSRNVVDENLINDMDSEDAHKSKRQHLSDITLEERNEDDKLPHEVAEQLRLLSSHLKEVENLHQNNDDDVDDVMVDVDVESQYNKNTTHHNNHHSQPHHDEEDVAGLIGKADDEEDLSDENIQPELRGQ
How it was run: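 Masliner-normalised scans of fluorescent anti-GST signal were the basis for scoring. That signal came from GST-tagged yeast transcription factors applied at about 100-200 nM to double-stranded universal all-10-mer Agilent arrays on fresh or once-stripped slides. Each ungapped eight-base word, pooled with its reverse complement, received an E-score from the Universal PBM Analysis Suite.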

Going from AACCACGC to GACCATAA, the “PBM E-score” value rises from -0.0491 to 0.129.

First: CGCGTACA
Second: AGTGCGTC
The “PBM E-score” value of the first is higher: 0.117 for the first, -0.125 for the second.

First: CGTAGACC
Second: TAAAGGAA
The “PBM E-score” value of the first is higher: -0.0641 for the first, -0.0901 for the second.

Compared with ATAGGGCG, AGCGTTCG is lower in “PBM E-score” value: 0.0271 for the first, -0.117 for the second.

First: ACAGGTGG
Second: CGCCCACA
The “PBM E-score” value of the first is higher: -0.0522 for the first, -0.153 for the second.

First: ATAAGCCA
Second: CGTAAGAA
The “PBM E-score” value of the first is lower: 0.0643 for the first, 0.282 for the second.

First: CTATTGAC
Second: ATGCTACA
The “PBM E-score” value of the first is higher: 0.136 for the first, 0.128 for the second.

Going from AAGGTAGC to CCTGCACG, the “PBM E-score” value rises from -0.0728 to 0.137.

Compared with AGTATAGC, GATAATCC is higher in “PBM E-score” value: -0.176 for the first, 0.0776 for the second.

Compared with AGAGCTGC, ACACCACG is higher in “PBM E-score” value: -0.161 for the first, -0.153 for the second.

Compared with CAATGAAC, ACCATGAG is lower in “PBM E-score” value: -0.0206 for the first, -0.108 for the second.

First: CTATCGTA
Second: CAATTTTC
The “PBM E-score” value of the first is higher: 0.281 for the first, -0.0326 for the second.

Going from AGATCCTC to ATCTGTTA, the “PBM E-score” value rises from -0.0761 to 0.178.

Compared with CGATCCCA, AAGAAACT is higher in “PBM E-score” value: -0.00308 for the first, 0.00097 for the second.

First: AGGGGGCA
Second: CCCCCTGA
The “PBM E-score” value of the first is higher: -0.273 for the first, -0.383 for the second.

Going from ACGAGCAA to CCTTATCC, the “PBM E-score” value falls from 0.0253 to -0.276.

Compared with AACATAAT, ATTATGGC is lower in “PBM E-score” value: 0.0774 for the first, -0.0611 for the second.

Compared with CAAAATGA, GTGGTATA is lower in “PBM E-score” value: 0.275 for the first, -0.0621 for the second.

Compared with CGACCACA, GACGCGCC is higher in “PBM E-score” value: -0.0906 for the first, -0.0135 for the second.

Compared with ACTCGCGA, AGCAGCAG is lower in “PBM E-score” value: 0.152 for the first, -0.0397 for the second.

Going from GCCCAGGC to ACTGCAAT, the “PBM E-score” value rises from -0.235 to -0.101.

Going from ACCACTGG to CGCCGAAG, the “PBM E-score” value falls from -0.103 to -0.243.

Compared with ACAACGAA, ACAATTCC is lower in “PBM E-score” value: 0.16 for the first, 0.0825 for the second.

Going from GACAGTAA to TGAATAAA, the “PBM E-score” value rises from 0.0216 to 0.16.

First: ATGAAGGG
Second: CGTTGGGA
The “PBM E-score” value of the first is lower: -0.0285 for the first, 0.0305 for the second.

Going from ATCGTTTA to AGCTGGAG, the “PBM E-score” value falls from 0.321 to -0.18.

First: ATGCGCCC
Second: CAAGCTAC
The “PBM E-score” value of the first is higher: -0.0262 for the first, -0.128 for the second.

Compared with AGGGCTTG, CGGGATAG is lower in “PBM E-score” value: -0.00461 for the first, -0.00646 for the second.

Compared with CTACGGAG, GCCAGACC is lower in “PBM E-score” value: 0.18 for the first, -0.158 for the second.

Going from ACGAGTCT to CTGGCAGA, the “PBM E-score” value falls from 0.0644 to -0.057.

First: CACCAATC
Second: CACGTTAG
The “PBM E-score” value of the first is lower: -0.0474 for the first, 0.0535 for the second.

First: CTACGTCA
Second: ATCACGGA
The “PBM E-score” value of the first is lower: 0.146 for the first, 0.246 for the second.

Going from ACAGCGGT to GGCGTTAA, the “PBM E-score” value rises from -0.124 to -0.0411.

Compared with GTCAACTA, ACAGAGCC is lower in “PBM E-score” value: 0.124 for the first, -0.144 for the second.

Compared with CCGTGTCG, AATGTCGG is lower in “PBM E-score” value: 0.0187 for the first, -0.0313 for the second.

Compared with ACTCGATA, CATCGAAA is lower in “PBM E-score” value: 0.199 for the first, -0.091 for the second.

First: TATCATCA
Second: AATACGCG
The “PBM E-score” value of the first is higher: 0.385 for the first, 0.06 for the second.

First: CCCCTATA
Second: AATGACCC
The “PBM E-score” value of the first is lower: -0.171 for the first, -0.111 for the second.

Compared with GAATCAGC, CCAAAGCG is higher in “PBM E-score” value: -0.149 for the first, 0.0362 for the second.

Going from ATATTGGG to AGTTAACT, the “PBM E-score” value rises from -0.0849 to -0.0757.

Going from CATGTCAA to CAGGCCAA, the “PBM E-score” value falls from 0.105 to -0.222.

First: ATCTCAAC
Second: CCCTATTA
The “PBM E-score” value of the first is higher: 0.196 for the first, -0.101 for the second.

First: ACAGGGTG
Second: AGAGCGCG
The “PBM E-score” value of the first is lower: -0.156 for the first, -0.135 for the second.

Compared with GACACAAC, CCACGGTA is higher in “PBM E-score” value: 0.0974 for the first, 0.216 for the second.

Compared with ACGCGCTG, AATGGGGA is higher in “PBM E-score” value: -0.133 for the first, -0.106 for the second.

First: GTCACCAA
Second: TGGGGGAA
The “PBM E-score” value of the first is higher: 0.189 for the first, -0.433 for the second.

Going from CGAGCCTA to AAGAGTTA, the “PBM E-score” value rises from -0.16 to -0.146.

Compared with AATGGGCG, AAACAGTA is higher in “PBM E-score” value: -0.233 for the first, 0.0722 for the second.

Going from GCATATGA to CATACCGC, the “PBM E-score” value rises from 0.028 to 0.0472.

Going from CCTTTAGC to CTGCACGA, the “PBM E-score” value rises from -0.0196 to 0.303.

Compared with AAACGTTT, ACCGATCC is lower in “PBM E-score” value: 0.218 for the first, -0.0259 for the second.

First: AGCTCGTG
Second: GCCTCCAC
The “PBM E-score” value of the first is higher: 0.101 for the first, -0.207 for the second.

Going from ACCCGTCC to GAGGAGAC, the “PBM E-score” value rises from -0.084 to -0.062.

First: CTGTGCCC
Second: AGTGTTCA
The “PBM E-score” value of the first is higher: -0.0311 for the first, -0.11 for the second.

Compared with ACGTGCTG, AAGCGCGC is higher in “PBM E-score” value: 0.00737 for the first, 0.0416 for the second.
